Data published in article PMC5133637.

Protein sequences, listed by entry. Tags and fused reporters are not part of them. Lines headed by an entry give the natural chain unless they say otherwise; changes in a name come on top.
UniProt Q9QZL6: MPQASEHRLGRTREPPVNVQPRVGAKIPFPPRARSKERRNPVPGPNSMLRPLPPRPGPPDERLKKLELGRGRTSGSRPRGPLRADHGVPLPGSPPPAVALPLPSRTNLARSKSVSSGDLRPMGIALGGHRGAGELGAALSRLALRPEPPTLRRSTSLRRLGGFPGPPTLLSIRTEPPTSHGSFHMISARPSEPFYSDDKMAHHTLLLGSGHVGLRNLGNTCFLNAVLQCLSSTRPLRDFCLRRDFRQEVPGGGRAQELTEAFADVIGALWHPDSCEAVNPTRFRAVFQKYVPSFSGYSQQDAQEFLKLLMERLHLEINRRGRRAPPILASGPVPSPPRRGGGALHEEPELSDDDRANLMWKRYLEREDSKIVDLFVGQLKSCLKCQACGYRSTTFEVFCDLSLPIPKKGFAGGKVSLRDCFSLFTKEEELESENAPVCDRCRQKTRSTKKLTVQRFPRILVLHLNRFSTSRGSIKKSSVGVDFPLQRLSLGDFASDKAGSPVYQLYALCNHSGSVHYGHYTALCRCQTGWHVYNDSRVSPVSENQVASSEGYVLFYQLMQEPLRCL

Legend:
Experiment in all cases: co-IP; transfected HEK293T cells; lysis in 50 mM Tris-Cl pH 7.4, 0.5% NP-40, 150 mM NaCl, 1 mM EDTA; HA-conjugated beads or M2 (anti-Flag) beads 2-3 h; western blot; in some panels cells treated with EGF with or without SCH772984, or co-expressing MEK1^CA and ERK1
HA-Nanog (mouse) = biological target: T1, HA-Nanog (mouse) (UniProt Q80Z64)
T1 sequence: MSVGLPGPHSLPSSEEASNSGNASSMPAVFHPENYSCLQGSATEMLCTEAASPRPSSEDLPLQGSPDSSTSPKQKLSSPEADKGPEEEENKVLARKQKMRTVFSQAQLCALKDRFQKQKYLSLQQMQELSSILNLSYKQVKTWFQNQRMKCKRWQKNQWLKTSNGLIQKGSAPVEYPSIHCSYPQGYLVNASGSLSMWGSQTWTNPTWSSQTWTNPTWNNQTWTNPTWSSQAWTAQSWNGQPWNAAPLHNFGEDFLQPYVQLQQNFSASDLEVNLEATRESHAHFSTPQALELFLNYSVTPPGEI

Flag-USP21 S539A (mouse) = Flag-USP21 S539A (mouse) (UniProt Q9QZL6)
USP21 S93D (mouse) = USP21 S93D (mouse) (UniProt Q9QZL6)
Flag-USP21-SV (mouse) = biological target: Flag-USP21-SV (mouse)
[1] = biological target: USP21 C-terminal UCH (catalytic domain) (mouse)
USP21 S335D (mouse) = USP21 S335D (mouse) (UniProt Q9QZL6)

Measured: binding

Flag-USP21-SV (mouse) (enzyme)
binds: HA-Nanog (mouse)

B1: HA-Nanog (protein, UniProt Q80Z64 1-305)
chain: MSVGLPGPHSLPSSEEASNSGNASSMPAVFHPENYSCLQGSATEMLCTEAASPRPSSEDLPLQGSPDSSTSPKQKLSSPEADKGPEEEENKVLARKQKMRTVFSQAQLCALKDRFQKQKYLSLQQMQELSSILNLSYKQVKTWFQNQRMKCKRWQKNQWLKTSNGLIQKGSAPVEYPSIHCSYPQGYLVNASGSLSMWGSQTWTNPTWSSQTWTNPTWNNQTWTNPTWSSQAWTAQSWNGQPWNAAPLHNFGEDFLQPYVQLQQNFSASDLEVNLEATRESHAHFSTPQALELFLNYSVTPPGEI
binds: Flag-USP21 S539A (mouse) | USP21 S93D (mouse) | Flag-USP21-SV (mouse) | [1] | USP21 S335D (mouse)

Results are given in words; binding and its absence hold for the method and conditions named. Binding seen in cells or lysates may run through a third protein. Binding calls can cover weak binding; strength is not graded here. Where a sequence is shown, tags or fusion partners need not be part of it.
